Earlier results in patent US20030008843A1, “Bulking agents as satiety agents” (priority 2001, published 2003).
At least one structure is not confirmed: it was looked up by name or label, or the drawing left a doubt.

Settings: cited from earlier work

SMILES: C[C@H]1O[C@H](O[C@H]2[C@H](O)[C@@H](O)[C@@H](O[C@H]3[C@H](O)[C@@H](O)C(O)O[C@@H]3CO)O[C@@H]2CO)[C@H](O)[C@@H](O)[C@@H]1N[C@H]1C=C(CO)[C@@H](O)[C@H](O)[C@H]1O (stereo partly shown) [Acarbose]
- effectiveness in humans: ineffective
